# Read-outs that look alike come from different tables or passages of the source. At least one peptide structure holds a part that was inferred or is arguable (an end, a ring closure or a residue).
# Details: for impurity at 1.07 RRT, MSA HPLC assay: over 1 month
substance,measurement,setting,value
H-YGRKKRRQRRRKLSSIESDV-OH [TAT-NR2B9c],"impurity at 1.07 RRT, MSA HPLC assay",40° C. storage temperature,0.27%
same,"% Label Claim, TFA Method","40° C., t = 1 week",97.0%
same,Appearance,"40° C., t = 1 week",Dense white cake
same,"Individual Impurities % Area, RRT 0.59","40° C., t = 1 week",0.02% Area
same,"Individual Impurities % Area, RRT 0.97","40° C., t = 1 week",0.26% Area
same,"Individual Impurities % Area, RRT 1.04","40° C., t = 1 week",0.25% Area
same,"Individual Impurities % Area, RRT 1.07","40° C., t = 1 week",0.13% Area
same,"Individual Impurities % Area, RRT 1.10","40° C., t = 1 week",0.15% Area
same,"Individual Impurities % Area, RRT 1.13","40° C., t = 1 week",0.04% Area
same,"Individual Impurities % Area, RRT 1.15","40° C., t = 1 week",0.02% Area
same,"Individual Impurities % Area, RRT 1.26","40° C., t = 1 week",0.01% Area
same,"Individual Impurities % Area, RRT 1.29","40° C., t = 1 week",0.02% Area
same,Reconstitution Time,"40° C., t = 1 week",^~60 sec
same,"Total Purity, MSA Method (% Area)","40° C., t = 1 week",99.1% Area
same,pH,"40° C., t = 1 week",6.55
same,"% Label Claim, TFA Method","40° C., t = 2 weeks",100.6%
same,Appearance,"40° C., t = 2 weeks",Dense white cake
same,"Individual Impurities % Area, RRT 0.62","40° C., t = 2 weeks",0.02% Area
same,"Individual Impurities % Area, RRT 0.95","40° C., t = 2 weeks",0.02% Area
same,"Individual Impurities % Area, RRT 0.98","40° C., t = 2 weeks",0.21% Area
same,"Individual Impurities % Area, RRT 1.05","40° C., t = 2 weeks",0.33% Area
same,"Individual Impurities % Area, RRT 1.10","40° C., t = 2 weeks",0.17% Area
same,"Individual Impurities % Area, RRT 1.13","40° C., t = 2 weeks",0.16% Area
same,"Individual Impurities % Area, RRT 1.15","40° C., t = 2 weeks",0.05% Area
same,"Individual Impurities % Area, RRT 1.17","40° C., t = 2 weeks",0.05% Area
same,"Individual Impurities % Area, RRT 1.29","40° C., t = 2 weeks",0.01% Area
same,"Individual Impurities % Area, RRT 1.31","40° C., t = 2 weeks",0.04% Area
same,Reconstitution Time,"40° C., t = 2 weeks",^~60 sec
same,"Total Purity, MSA Method (% Area)","40° C., t = 2 weeks",98.9% Area
same,pH,"40° C., t = 2 weeks",6.21
same,"% Label Claim, TFA Method","40° C., t = 4 weeks",100.6%
same,Appearance,"40° C., t = 4 weeks",Dense white cake
same,"Individual Impurities % Area, RRT 0.59","40° C., t = 4 weeks",0.02% Area
same,"Individual Impurities % Area, RRT 0.95","40° C., t = 4 weeks",0.01% Area
same,"Individual Impurities % Area, RRT 0.97","40° C., t = 4 weeks",0.17% Area
same,"Individual Impurities % Area, RRT 1.05","40° C., t = 4 weeks",0.27% Area
same,"Individual Impurities % Area, RRT 1.10","40° C., t = 4 weeks",0.19% Area
same,"Individual Impurities % Area, RRT 1.13","40° C., t = 4 weeks",0.05% Area
same,"Individual Impurities % Area, RRT 1.16","40° C., t = 4 weeks",0.02% Area
same,"Individual Impurities % Area, RRT 1.28","40° C., t = 4 weeks",0.01% Area
same,"Individual Impurities % Area, RRT 1.30","40° C., t = 4 weeks",0.07% Area
same,Reconstitution Time,"40° C., t = 4 weeks",^~60 sec
same,"Total Purity, MSA Method (% Area)","40° C., t = 4 weeks",99.0% Area
same,"impurity at 1.07 RRT, MSA HPLC assay",60° C. storage temperature,0.59%
same,"% Label Claim, TFA Method","60° C., t = 1 week",97.3%
same,Appearance,"60° C., t = 1 week",Dense white cake
same,"Individual Impurities % Area, RRT 0.53","60° C., t = 1 week",0.01% Area
same,"Individual Impurities % Area, RRT 0.59","60° C., t = 1 week",0.03% Area
same,"Individual Impurities % Area, RRT 0.91","60° C., t = 1 week",0.01% Area
same,"Individual Impurities % Area, RRT 0.95","60° C., t = 1 week",0.02% Area
same,"Individual Impurities % Area, RRT 0.97","60° C., t = 1 week",0.26% Area
same,"Individual Impurities % Area, RRT 1.04","60° C., t = 1 week",0.23% Area
same,"Individual Impurities % Area, RRT 1.07","60° C., t = 1 week",0.24% Area
same,"Individual Impurities % Area, RRT 1.10","60° C., t = 1 week",0.23% Area
same,"Individual Impurities % Area, RRT 1.12","60° C., t = 1 week",0.05% Area
same,"Individual Impurities % Area, RRT 1.15","60° C., t = 1 week",0.02% Area
same,"Individual Impurities % Area, RRT 1.26","60° C., t = 1 week",0.01% Area
same,"Individual Impurities % Area, RRT 1.29","60° C., t = 1 week",0.08% Area
same,Reconstitution Time,"60° C., t = 1 week",^~60 sec
same,"Total Purity, MSA Method (% Area)","60° C., t = 1 week",98.8% Area
same,pH,"60° C., t = 1 week",6.43
same,"% Label Claim, TFA Method","60° C., t = 2 weeks",101.5%
same,Appearance,"60° C., t = 2 weeks",Dense white cake
same,"Individual Impurities % Area, RRT 0.53","60° C., t = 2 weeks",0.01% Area
same,"Individual Impurities % Area, RRT 0.62","60° C., t = 2 weeks",0.02% Area
same,"Individual Impurities % Area, RRT 0.91","60° C., t = 2 weeks",0.02% Area
same,"Individual Impurities % Area, RRT 0.95","60° C., t = 2 weeks",0.02% Area
same,"Individual Impurities % Area, RRT 0.98","60° C., t = 2 weeks",0.25% Area
same,"Individual Impurities % Area, RRT 1.05","60° C., t = 2 weeks",0.33 % Area
same,"Individual Impurities % Area, RRT 1.09","60° C., t = 2 weeks",0.37% Area
same,"Individual Impurities % Area, RRT 1.12","60° C., t = 2 weeks",0.30% Area
same,"Individual Impurities % Area, RRT 1.15","60° C., t = 2 weeks",0.10% Area
same,"Individual Impurities % Area, RRT 1.17","60° C., t = 2 weeks",0.07% Area
same,"Individual Impurities % Area, RRT 1.26","60° C., t = 2 weeks",<0.01% Area
same,"Individual Impurities % Area, RRT 1.30","60° C., t = 2 weeks",0.17% Area
same,Reconstitution Time,"60° C., t = 2 weeks",^~60 sec
same,"Total Purity, MSA Method (% Area)","60° C., t = 2 weeks",98.3% Area
same,pH,"60° C., t = 2 weeks",6.29
same,"% Label Claim, TFA Method","60° C., t = 4 weeks",101.5%
same,Appearance,"60° C., t = 4 weeks",Dense white cake
same,"Individual Impurities % Area, RRT 0.51","60° C., t = 4 weeks",0.02% Area
same,"Individual Impurities % Area, RRT 0.59","60° C., t = 4 weeks",0.02% Area
same,"Individual Impurities % Area, RRT 0.92","60° C., t = 4 weeks",0.01% Area
same,"Individual Impurities % Area, RRT 0.95","60° C., t = 4 weeks",0.03% Area
same,"Individual Impurities % Area, RRT 0.97","60° C., t = 4 weeks",0.20% Area
same,"Individual Impurities % Area, RRT 1.05","60° C., t = 4 weeks",0.28% Area
same,"Individual Impurities % Area, RRT 1.08","60° C., t = 4 weeks",0.59% Area
same,"Individual Impurities % Area, RRT 1.10","60° C., t = 4 weeks",0.44% Area
same,"Individual Impurities % Area, RRT 1.13","60° C., t = 4 weeks",0.09% Area
same,"Individual Impurities % Area, RRT 1.15","60° C., t = 4 weeks",0.05% Area
same,"Individual Impurities % Area, RRT 1.27","60° C., t = 4 weeks",0.01% Area
same,"Individual Impurities % Area, RRT 1.30","60° C., t = 4 weeks",0.29% Area
same,Reconstitution Time,"60° C., t = 4 weeks",^~60 sec
same,"Total Purity, MSA Method (% Area)","60° C., t = 4 weeks",98.0% Area
same,pH,"60° C., t = 4 weeks",6.29
same,Impurities interpolated using the Arrhenius equation,after 16 months at 25° C.,less than 0.5%
same,Impurities interpolated using the Arrhenius equation,after 123 months at 5° C.,less than 0.5%
same,Impurities interpolated using the Arrhenius equation,for >60 months at room temperature,less than 2%
same,"% Label Claim, TFA Method",t = 0,99.0%
same,Appearance,t = 0,Dense white cake
same,"Deamidated NA-1, SCX Method (% Area)",t = 0,<0.05% Area
same,"Individual Impurities % Area, RRT 0.59",t = 0,0.02% Area
same,"Individual Impurities % Area, RRT 0.97",t = 0,0.26% Area
same,"Individual Impurities % Area, RRT 1.04",t = 0,0.26% Area
same,"Individual Impurities % Area, RRT 1.07",t = 0,0.09 % Area
same,"Individual Impurities % Area, RRT 1.10",t = 0,0.13% Area
same,"Individual Impurities % Area, RRT 1.15",t = 0,0.02% Area
same,"Individual Impurities % Area, RRT 1.26",t = 0,0.01% Area
same,"Individual Impurities % Area, RRT 1.29",t = 0,0.01% Area
same,"Total Purity, MSA Method (% Area)",t = 0,99.2% Area
same,Water Content,t = 0,0.02%
same,pH,t = 0,6.32
same,"Individual Impurities % Area, RRT 0.59","−20° C., T = 4 weeks",0.02% Area
same,"Individual Impurities % Area, RRT 0.95","−20° C., T = 4 weeks",0.01% Area
same,"Individual Impurities % Area, RRT 0.98","−20° C., T = 4 weeks",0.21% Area
same,"Individual Impurities % Area, RRT 1.05","−20° C., T = 4 weeks",0.32% Area
same,"Individual Impurities % Area, RRT 1.09","−20° C., T = 4 weeks",0.04% Area
same,"Individual Impurities % Area, RRT 1.11","−20° C., T = 4 weeks",0.12% Area
same,"Individual Impurities % Area, RRT 1.14","−20° C., T = 4 weeks",0.03% Area
same,"Individual Impurities % Area, RRT 1.16","−20° C., T = 4 weeks",0.02% Area

# From patent US11266714B2, “Chloride salt of TAT-NR2B9C” (NoNO Inc., priority 2014, dated 2022)
